In patent publication US11523990B2, “Non-covalent, self-organzing hydrogel matrix for biotechnological applications” (DENOVOMATRIX GMBH, priority 2012, dated 2022):

test: Heparin dependent structural change by circular dichroism spectroscopy; assay type: binding; conditions: unconjugated peptide in MilliQ-water with 14-kDa-heparin

| Substance | Heparin dependent structural change (CD) |
| --- | --- |
| CWGGKAKAKAKaKAKAKA (CWGGKAKAKAKAKAKAKA; D-alanine residue) [KA7-1a] | no structural change occurs |
| CWGGKaKaKaKaKaKaKa (CWGGKAKAKAKAKAKAKA; D-alanine residues; (6)..(6) D-amino acid; (8)..(8) D-amino acid; (10)..(10) D-amino acid; (12)..(12) D-amino acid; (14)..(14) D-amino acid; (16)..(16) D-amino acid; (18)..(18) D-amino acid) [KdA7] | nor does one of these mutants show a structural change |
| CWGGkAkAkAkAkAkAkA (CWGGKAKAKAKAKAKAKA; D-lysine residues; (5)..(5) D-amino acid; (7)..(7) D-amino acid; (9)..(9) D-amino acid; (11)..(11) D-amino acid; (13)..(13) D-amino acid; (15)..(15) D-amino acid; (17)..(17) D-amino acid) [dKA7] | nor does one of these mutants show a structural change |
